Data published in article PMC4532887, “Structural and mechanistic insights into phospholipid transfer by Ups1–Mdm35 in mitochondria” (Nature Communications, 2015).
Results are given in words; binding and its absence hold for the method and conditions named. Sequences can lack the tags named with a protein.

How the values were obtained:
[1] = target: Ups1ΔC5 (Ups1 lacking the C-terminal five residues), N-terminally His6 tagged (S. cerevisiae) (UniProt Q05776); test: SEC; gel-filtration analysis of the Ups1ΔC5–Mdm35ΔC5 complex in solution; apparent MW; both purified
[2] = target: Ups1ΔC5 (Ups1 lacking the C-terminal five residues), N-terminally His6 tagged (S. cerevisiae) (UniProt Q05776); test: crystal structure; Ups1ΔC5–Mdm35ΔC5 complex without PA, 1.40 Å; sitting drop at 20 °C, 0.2 M ammonium citrate tribasic pH 7.0, 20% polyethylene glycol 3,350; both purified

binding [1]: no binding
binding [2]: no binding
B1: Ups1ΔC5 (Ups1 lacking the C-terminal five residues), N-terminally His6 tagged (domain or fragment, UniProt Q05776 1-170)
chain: MVLLHKSTHIFPTDFASVSRAFFNRYPNPYSPHVLSIDTISRNVDQEGNLRTTRLLKKSGKLPTWVKPFLRGITETWIIEVSVVNPANSTMKTYTRNLDHTGIMKVEEYTTYQFDSATSSTIADSRVKFSSGFNMGIKSKVEDWSRTKFDENVKKSRMGMAFVIQKLEEA
